Measured values reported in the supplement of paper PMC10849652.
Some of the results follow.

Protein sequences, listed by entry. Tags and fused reporters are not part of them. Lines headed by an entry give the natural chain unless they say otherwise; changes in a name come on top.
UniProt P49116: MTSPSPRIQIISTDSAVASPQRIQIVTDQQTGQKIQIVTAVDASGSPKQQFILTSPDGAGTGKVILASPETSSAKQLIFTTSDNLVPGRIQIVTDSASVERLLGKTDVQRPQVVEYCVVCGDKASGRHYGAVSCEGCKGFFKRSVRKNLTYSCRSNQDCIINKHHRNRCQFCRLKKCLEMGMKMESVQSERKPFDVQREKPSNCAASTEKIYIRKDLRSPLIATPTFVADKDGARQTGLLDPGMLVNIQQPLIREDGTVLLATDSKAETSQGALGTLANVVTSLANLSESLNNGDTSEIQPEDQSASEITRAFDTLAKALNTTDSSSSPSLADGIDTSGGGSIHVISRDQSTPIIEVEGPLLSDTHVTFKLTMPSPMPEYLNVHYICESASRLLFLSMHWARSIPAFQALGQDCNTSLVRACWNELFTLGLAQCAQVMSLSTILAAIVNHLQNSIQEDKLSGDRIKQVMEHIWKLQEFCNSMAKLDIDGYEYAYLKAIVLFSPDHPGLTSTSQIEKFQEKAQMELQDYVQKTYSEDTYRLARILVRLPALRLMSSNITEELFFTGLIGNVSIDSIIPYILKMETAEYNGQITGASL
UniProt Q8WV74: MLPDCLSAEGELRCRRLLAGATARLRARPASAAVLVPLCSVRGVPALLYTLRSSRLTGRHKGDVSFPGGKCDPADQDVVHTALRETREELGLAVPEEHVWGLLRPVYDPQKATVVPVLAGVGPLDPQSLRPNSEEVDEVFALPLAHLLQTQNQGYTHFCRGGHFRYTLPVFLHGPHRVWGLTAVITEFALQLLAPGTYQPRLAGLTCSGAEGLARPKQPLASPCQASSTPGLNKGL
UniProt Q15155: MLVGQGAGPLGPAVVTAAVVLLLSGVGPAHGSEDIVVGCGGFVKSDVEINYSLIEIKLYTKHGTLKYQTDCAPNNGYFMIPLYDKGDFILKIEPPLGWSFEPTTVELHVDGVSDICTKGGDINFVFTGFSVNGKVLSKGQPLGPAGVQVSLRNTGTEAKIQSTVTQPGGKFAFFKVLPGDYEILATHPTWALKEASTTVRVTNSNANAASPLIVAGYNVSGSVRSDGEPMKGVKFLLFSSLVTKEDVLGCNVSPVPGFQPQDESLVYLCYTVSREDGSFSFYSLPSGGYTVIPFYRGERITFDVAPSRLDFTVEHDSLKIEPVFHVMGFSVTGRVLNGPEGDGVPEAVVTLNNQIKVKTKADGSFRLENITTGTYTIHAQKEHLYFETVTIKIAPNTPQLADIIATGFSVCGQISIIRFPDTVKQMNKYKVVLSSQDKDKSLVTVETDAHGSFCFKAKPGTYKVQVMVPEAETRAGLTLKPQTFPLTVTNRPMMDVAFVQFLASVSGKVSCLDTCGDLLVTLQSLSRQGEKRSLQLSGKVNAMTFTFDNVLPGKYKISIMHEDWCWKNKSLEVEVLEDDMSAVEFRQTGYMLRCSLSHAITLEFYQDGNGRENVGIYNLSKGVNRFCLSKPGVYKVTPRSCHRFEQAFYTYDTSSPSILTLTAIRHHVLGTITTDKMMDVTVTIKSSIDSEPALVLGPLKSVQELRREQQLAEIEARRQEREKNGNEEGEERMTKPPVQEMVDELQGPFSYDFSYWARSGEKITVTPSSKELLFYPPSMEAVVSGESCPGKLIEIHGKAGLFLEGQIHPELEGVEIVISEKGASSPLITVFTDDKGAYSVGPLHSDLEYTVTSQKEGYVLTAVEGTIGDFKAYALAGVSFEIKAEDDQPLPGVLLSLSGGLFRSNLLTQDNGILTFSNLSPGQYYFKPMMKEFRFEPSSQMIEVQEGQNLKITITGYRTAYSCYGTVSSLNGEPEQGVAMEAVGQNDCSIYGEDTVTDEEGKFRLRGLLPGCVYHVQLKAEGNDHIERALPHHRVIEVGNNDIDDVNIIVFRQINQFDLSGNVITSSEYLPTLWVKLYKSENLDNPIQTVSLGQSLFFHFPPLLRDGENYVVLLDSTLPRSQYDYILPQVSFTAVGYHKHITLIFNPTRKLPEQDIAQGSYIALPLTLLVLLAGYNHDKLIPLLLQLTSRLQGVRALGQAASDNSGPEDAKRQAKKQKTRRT
UniProt P24468: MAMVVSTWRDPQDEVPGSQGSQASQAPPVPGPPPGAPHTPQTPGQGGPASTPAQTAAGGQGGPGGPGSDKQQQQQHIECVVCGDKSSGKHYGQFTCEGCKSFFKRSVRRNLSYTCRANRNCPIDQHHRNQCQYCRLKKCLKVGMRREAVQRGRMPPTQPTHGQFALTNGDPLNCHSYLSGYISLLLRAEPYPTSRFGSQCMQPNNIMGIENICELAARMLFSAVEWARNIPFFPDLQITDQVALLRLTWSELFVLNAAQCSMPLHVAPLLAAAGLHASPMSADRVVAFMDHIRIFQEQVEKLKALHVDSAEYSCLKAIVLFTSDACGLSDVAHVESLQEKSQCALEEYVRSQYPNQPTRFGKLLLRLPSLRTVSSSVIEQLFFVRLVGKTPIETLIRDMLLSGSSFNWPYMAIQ
UniProt P15531, whole entry, looked up: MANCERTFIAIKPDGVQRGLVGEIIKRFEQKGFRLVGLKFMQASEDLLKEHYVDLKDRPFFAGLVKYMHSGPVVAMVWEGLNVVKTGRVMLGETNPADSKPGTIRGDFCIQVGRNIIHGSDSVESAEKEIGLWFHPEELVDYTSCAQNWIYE
UniProt Q96L73: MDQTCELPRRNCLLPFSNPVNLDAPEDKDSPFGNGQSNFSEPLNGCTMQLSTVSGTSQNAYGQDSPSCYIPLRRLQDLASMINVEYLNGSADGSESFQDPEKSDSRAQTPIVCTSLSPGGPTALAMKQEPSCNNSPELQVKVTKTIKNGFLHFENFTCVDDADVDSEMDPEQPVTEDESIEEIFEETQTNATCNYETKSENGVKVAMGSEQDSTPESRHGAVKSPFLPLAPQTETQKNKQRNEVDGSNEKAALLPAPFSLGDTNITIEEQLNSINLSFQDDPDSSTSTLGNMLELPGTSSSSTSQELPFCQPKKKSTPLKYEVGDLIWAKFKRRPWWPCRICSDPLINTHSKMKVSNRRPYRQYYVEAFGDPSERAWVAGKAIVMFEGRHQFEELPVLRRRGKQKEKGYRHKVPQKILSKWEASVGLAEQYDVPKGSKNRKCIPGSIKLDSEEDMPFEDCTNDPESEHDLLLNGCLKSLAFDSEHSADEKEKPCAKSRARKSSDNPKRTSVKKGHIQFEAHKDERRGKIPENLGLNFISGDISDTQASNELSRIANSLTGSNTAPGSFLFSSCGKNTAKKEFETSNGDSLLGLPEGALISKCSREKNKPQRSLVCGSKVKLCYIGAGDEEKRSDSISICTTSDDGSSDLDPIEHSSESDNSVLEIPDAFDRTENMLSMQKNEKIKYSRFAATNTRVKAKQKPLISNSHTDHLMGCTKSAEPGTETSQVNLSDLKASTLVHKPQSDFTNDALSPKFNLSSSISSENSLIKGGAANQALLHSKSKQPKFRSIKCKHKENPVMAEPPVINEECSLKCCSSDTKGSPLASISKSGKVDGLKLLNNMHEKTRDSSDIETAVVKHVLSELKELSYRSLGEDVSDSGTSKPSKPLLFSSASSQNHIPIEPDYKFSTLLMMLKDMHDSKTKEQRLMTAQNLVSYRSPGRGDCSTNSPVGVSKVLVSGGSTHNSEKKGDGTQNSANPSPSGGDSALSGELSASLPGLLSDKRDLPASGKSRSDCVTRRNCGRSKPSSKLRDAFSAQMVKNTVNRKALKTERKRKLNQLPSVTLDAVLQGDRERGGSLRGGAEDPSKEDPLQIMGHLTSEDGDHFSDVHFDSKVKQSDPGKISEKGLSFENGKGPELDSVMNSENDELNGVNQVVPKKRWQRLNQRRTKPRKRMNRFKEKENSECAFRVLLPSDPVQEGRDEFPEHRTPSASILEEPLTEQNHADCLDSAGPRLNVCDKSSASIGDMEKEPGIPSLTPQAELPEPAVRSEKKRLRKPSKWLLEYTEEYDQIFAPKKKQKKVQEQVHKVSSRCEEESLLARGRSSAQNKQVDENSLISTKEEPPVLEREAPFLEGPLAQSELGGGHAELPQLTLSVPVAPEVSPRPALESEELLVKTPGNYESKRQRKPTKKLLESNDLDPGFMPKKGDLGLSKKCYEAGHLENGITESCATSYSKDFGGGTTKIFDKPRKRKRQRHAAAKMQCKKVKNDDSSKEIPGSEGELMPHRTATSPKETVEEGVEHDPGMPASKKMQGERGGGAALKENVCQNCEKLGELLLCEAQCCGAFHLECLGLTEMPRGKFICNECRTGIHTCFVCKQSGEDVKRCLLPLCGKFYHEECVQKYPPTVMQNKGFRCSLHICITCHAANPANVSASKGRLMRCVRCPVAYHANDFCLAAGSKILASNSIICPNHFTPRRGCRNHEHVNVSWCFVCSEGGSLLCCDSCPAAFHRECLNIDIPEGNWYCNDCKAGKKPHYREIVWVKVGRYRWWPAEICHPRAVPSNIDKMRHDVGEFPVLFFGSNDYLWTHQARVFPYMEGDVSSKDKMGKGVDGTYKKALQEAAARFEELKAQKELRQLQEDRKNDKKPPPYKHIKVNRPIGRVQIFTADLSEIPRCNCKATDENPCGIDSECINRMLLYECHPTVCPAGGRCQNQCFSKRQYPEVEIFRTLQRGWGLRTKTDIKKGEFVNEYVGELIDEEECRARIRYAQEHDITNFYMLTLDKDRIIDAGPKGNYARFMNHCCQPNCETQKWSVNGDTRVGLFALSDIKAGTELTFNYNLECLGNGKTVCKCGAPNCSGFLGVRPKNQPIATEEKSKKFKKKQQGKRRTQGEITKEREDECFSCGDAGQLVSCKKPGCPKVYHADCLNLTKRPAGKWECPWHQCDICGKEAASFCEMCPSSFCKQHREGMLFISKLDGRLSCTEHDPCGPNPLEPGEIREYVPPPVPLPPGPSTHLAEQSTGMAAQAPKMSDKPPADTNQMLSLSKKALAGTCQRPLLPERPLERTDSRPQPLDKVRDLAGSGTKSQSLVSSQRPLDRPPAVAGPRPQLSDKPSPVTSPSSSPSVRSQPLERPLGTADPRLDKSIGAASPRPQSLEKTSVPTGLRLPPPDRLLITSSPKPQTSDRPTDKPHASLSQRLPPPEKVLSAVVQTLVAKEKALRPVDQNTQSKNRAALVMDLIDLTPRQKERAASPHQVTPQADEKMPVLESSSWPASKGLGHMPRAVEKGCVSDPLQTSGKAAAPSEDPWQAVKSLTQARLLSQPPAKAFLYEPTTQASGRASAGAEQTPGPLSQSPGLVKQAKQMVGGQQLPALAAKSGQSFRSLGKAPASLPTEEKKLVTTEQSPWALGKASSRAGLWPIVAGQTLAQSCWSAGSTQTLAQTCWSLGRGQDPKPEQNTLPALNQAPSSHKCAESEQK
UniProt O95989: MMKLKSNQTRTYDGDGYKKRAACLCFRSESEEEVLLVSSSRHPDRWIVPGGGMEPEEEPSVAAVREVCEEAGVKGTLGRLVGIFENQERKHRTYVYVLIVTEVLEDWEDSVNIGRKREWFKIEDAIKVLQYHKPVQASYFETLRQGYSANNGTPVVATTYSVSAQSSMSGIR
UniProt P04150: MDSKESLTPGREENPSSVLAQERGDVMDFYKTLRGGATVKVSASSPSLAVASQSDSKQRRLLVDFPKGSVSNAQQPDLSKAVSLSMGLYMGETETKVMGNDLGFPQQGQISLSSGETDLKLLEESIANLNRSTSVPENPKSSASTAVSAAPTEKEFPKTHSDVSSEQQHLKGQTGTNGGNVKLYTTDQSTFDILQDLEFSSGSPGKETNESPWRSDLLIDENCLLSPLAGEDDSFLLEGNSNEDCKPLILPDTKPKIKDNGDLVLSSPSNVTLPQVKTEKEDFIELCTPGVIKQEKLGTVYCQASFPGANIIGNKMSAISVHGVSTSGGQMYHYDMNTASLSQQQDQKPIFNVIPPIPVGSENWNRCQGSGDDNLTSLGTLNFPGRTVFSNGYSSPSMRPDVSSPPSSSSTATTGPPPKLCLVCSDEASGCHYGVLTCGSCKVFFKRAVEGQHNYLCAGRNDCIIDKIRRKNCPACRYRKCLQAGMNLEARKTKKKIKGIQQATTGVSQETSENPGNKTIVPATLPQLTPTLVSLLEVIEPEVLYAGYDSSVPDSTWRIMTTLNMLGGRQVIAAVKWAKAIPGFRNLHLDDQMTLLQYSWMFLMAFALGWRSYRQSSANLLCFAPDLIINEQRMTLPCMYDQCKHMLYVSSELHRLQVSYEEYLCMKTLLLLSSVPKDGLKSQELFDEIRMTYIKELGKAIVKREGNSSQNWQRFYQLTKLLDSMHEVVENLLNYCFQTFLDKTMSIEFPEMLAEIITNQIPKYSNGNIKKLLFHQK
UniProt Q9BRQ3: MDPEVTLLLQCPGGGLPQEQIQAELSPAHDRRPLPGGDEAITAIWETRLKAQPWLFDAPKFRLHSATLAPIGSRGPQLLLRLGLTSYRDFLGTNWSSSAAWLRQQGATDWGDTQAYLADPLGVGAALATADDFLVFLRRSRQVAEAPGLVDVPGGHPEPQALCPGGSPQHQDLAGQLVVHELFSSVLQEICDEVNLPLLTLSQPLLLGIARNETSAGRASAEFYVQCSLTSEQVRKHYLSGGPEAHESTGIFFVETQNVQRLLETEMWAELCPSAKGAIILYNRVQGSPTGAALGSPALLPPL

Key:
Test in all cases: log2 fold change, soluble protein after heating vs DMSO (PISA); higher = thermal stabilisation; K562 lysate, 10 uM; active = over 0.2 and 3.5 SD of the protein, either way, in both replicates (recomputed)
[1] = compound: C#Cc1cccc(Nc2ncnc3cc(OCCOC)c(OCCOC)cc23)c1 [erlotinib]
Outline: (§1)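 Pellets of K562 cells were dounce-homogenised in PBS pH 7.4 with 1 mM MgCl2, and the crude extract was held at 1 mg/mL protein for a 30 min treatment with 10 μM compound. Aliquots were heated for 3 min over 48°C-58°C and pooled before NP-40 was added to 0.5% at 4°C. The supernatant from 21,000xg for 90 min was quantified by TMTpro 16plex LC-MS/MS with channel sums equalised. Values are reported from duplicates as log-two fold change in thermal stability relative to solvent controls.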

[2] = compound: C/C(=N\NC(=O)C1=CC(=CC=C1)S(=O)(=O)N2CCOCC2)/C3=C(C=CC(=C3)Cl)O
Outline: as §1

[3] = compound: C1=CC(=CC=C1C2=NC3=C(N2)C=C(C=C3)C(=O)N)OC4=CC=C(C=C4)Cl
Outline: as §1

[4] = compound: C1=CC2=C(C=CC(=C2)/C=C\3/C(=O)NC(=NCC4=CC=CS4)S3)N=C1
Outline: as §1

[5] = compound: C1=CC2=NC=CN=C2C=C1/C=C/3\C(=O)NC(=O)S3
Outline: as §1

[6] = compound: C1=CC=C(C=C1)C2=NC(=C(N2)C3=CC=NC=C3)C4=CC(=C(C=C4)Cl)O
Outline: as §1

[7] = compound: C1=CC=C2C(=C1)C3=NNC4=CC=CC(=C43)C2=O
Outline: as §1

[8] = compound: C1CCN(C1)C(=O)NC2=CC=CC(=C2)NC3=NC=C(C(=N3)NCCC4=CN=CN4)Br
Outline: as §1

[9] = compound: C1CN(CCC1(CC2=CC=C(C=C2)Cl)N)C3=NC=NC4=C3C=CN4
Outline: as §1

[10] = compound: C1COCCN1CCN2C3=CC=CC=C3N=C2NC(=O)C4=CC(=CC=C4)[N+](=O)[O-] [IRAK-1-4 Inhibitor I]
Outline: as §1

[11] = compound: C=CC(=O)N1CCC[C@@H](n2nc(-c3ccc(Oc4ccccc4)cc3)c3c(N)ncnc32)C1 [ibrutinib]
Outline: as §1

[12] = compound: CC(=O)c1cnc2ccc(-c3cc(Cl)c(O)c(Cl)c3)nc2c1N[C@H]1CC[C@H](CN(C)C)CC1
Outline: as §1

[13] = compound: CC(C)(C)Cn1c(N)nc2ccc(-c3[nH]c(C(C)(C)C)nc3-c3ccc(F)cc3)nc21 [ralimetinib]
Outline: as §1

[14] = compound: CC(C)(O)CC(=O)NCCn1ccc2ncnc(Nc3ccc(Oc4cccc(C(F)(F)F)c4)c(Cl)c3)c21
Outline: as §1

[15] = compound: CC(C)C1=C2N=C(C=C(N2N=C1)NCC3=CC=CC=C3)NCCCCCCN
Outline: as §1

[16] = compound: CC1=C(C2=C(C=C1)C(=O)C3=CC=CC=C3N2CCCN)C
Outline: as §1

[17] = compound: CC1=C(C=C(C=C1)NC(=O)C2=CC(=CC=C2)C(C)(C)C#N)NC3=CC4=C(C=C3)N=CN(C4=O)C
Outline: as §1

[18] = compound: CC1=C(C=C(C=C1)NC(=O)C2=CC(=CC=C2)N(C)C)NC(=O)C3=CC=C(C=C3)O
Outline: as §1

[19] = compound: CC1=CC=C(C=C1)SC2=C3C=C(SC3=CN=C2)C(=O)N
Outline: as §1

[20] = compound: CC1=C(C(CC(=O)N1)C2=CC=C(C=C2)C(F)(F)F)C(=O)NC3=C(C=C4C(=C3)C=NN4)F
Outline: as §1

Measured: log2 fold change

NR2C2 isoform 2 (UniProt P49116)
inactive: [1] 0.006 | [2] 0.135 | [3] -0.014 | [4] 0.134 | [5] -0.012 | [6] 0.064 | [7] -0.035 | [8] 0.061 | [9] -0.041 | [10] -0.019 | [11] 0.069 | [12] -0.081 | [13] 0.014 | [14] 0 | [15] -0.03 | [16] -0.064 | [17] 0.044 | [18] -0.019 | [19] -0.086

NSUN7 (UniProt Q8NE18)
inactive: [1] -0.037 | [2] -0.271 | [3] 0.019 | [4] -0.095 | [5] 0.198 | [6] -0.031 | [7] -0.087 | [8] -0.026 | [9] -0.042 | [10] 0.068 | [11] 0.076 | [12] -0.025 | [13] 0.168 | [14] -0.137 | [15] 0.042 | [17] 0.102 | [18] -0.009 | [19] -0.017

NUDT8 (UniProt Q8WV74)
inactive: [1] 0.086 | [2] 0.107 | [3] 0.055 | [4] 0.124 | [6] 0.126 | [7] -0.118 | [8] 0.064 | [9] -0.012 | [10] -0.027 | [12] -0.092 | [13] -0.034 | [14] 0.062 | [15] 0.081 | [20] -0.089 | [16] -0.055 | [17] 0.084 | [18] -0.028 | [19] 0.093

NOMO1 (UniProt Q15155)
inactive: [1] -0.012 | [3] 0.044 | [5] 0.02 | [6] -0.041 | [8] 0.14 | [9] -0.038 | [10] 0.073 | [11] -0.024 | [12] -0.021 | [13] -0.061 | [14] -0.119 | [15] -0.093 | [20] -0.013 | [16] 0.009 | [17] 0.07 | [18] 0.083 | [19] 0.001

NR2F2 (UniProt P24468)
inactive: [1] -0.007 | [3] 0 | [5] -0.192 | [6] 0.076 | [10] 0.048 | [11] 0.007 | [12] -0.09 | [13] -0.006 | [14] -0.069 | [15] -0.067 | [20] 0.097 | [16] 0.032 | [17] -0.031 | [18] 0.065 | [19] -0.042

NME1 isoform 2 (UniProt P15531)
inactive: [1] 0.002 | [2] 0.184 | [3] -0.079 | [4] -0.052 | [5] -0.029 | [6] -0.03 | [7] 0.132 | [8] 0.065 | [9] 0.001 | [10] -0.015 | [11] 0.028 | [12] -0.029 | [13] 0 | [14] -0.013 | [15] 0.032 | [16] -0.034 | [17] 0.039 | [18] -0.006 | [19] 0.012

NSD1 (UniProt Q96L73)
inactive: [1] -0.026 | [2] 0.018 | [3] 0.001 | [4] 0.045 | [6] -0.001 | [7] 0.069 | [8] -0.025 | [9] -0.003 | [10] 0.076 | [12] -0.011 | [13] 0.015 | [14] -0.019 | [15] -0.042 | [20] 0.069 | [16] -0.091 | [18] 0.016 | [19] 0.008

NUDT3 (UniProt O95989)
inactive: [1] -0.028 | [2] 0.043 | [3] -0.012 | [4] -0.009 | [5] -0.03 | [6] -0.026 | [7] 0.03 | [8] -0.019 | [9] -0.012 | [10] -0.033 | [11] 0.088 | [12] 0.035 | [13] 0.072 | [14] 0.035 | [15] -0.037 | [20] -0.002 | [16] -0.005 | [17] -0.01 | [18] -0.007 | [19] -0.007

NUF2 (UniProt Q9BZD4)
inactive: [1] 0.009 | [2] 0.006 | [3] -0.012 | [4] 0.03 | [5] -0.002 | [6] -0.047 | [7] -0.047 | [8] -0.039 | [9] -0.004 | [10] -0.039 | [11] -0.052 | [12] -0.051 | [13] 0.03 | [14] 0.015 | [15] -0.001 | [20] 0.018 | [16] 0.027 | [17] -0.011 | [18] 0.044 | [19] 0.009

NR3C1 isoform 3 (UniProt P04150)
inactive: [1] 0.061 | [2] -0.019 | [3] -0.058 | [4] -0.075 | [5] 0.09 | [6] 0.044 | [8] 0.047 | [9] -0.064 | [10] -0.059 | [11] -0.168 | [12] -0.019 | [13] -0.076 | [14] 0.04 | [15] 0.008 | [20] -0.031 | [16] 0.104 | [17] 0.024 | [18] -0.033 | [19] 0.055

NOL8 (UniProt Q76FK4)
inactive: [1] 0.08 | [2] 0.11 | [3] -0.025 | [4] 0.16 | [6] -0.045 | [7] 0.035 | [10] 0.088 | [12] 0.051 | [13] 0.015 | [14] -0.128 | [15] -0.023 | [16] -0.041 | [17] 0.069 | [18] 0.157 | [19] 0.03

NUDT22 (UniProt Q9BRQ3)
inactive: [1] -0.038 | [2] 0.034 | [3] -0.129 | [4] -0.004 | [7] 0.019 | [8] 0.247 | [9] -0.045 | [12] -0.023 | [15] 0.014 | [20] 0.07 | [17] -0.048 | [19] 0.012

2 records drawn at random from those above, as already listed:
NUDT22 (UniProt Q9BRQ3)
inactive: [1] -0.038 | [2] 0.034 | [3] -0.129 | [4] -0.004 | [7] 0.019 | [8] 0.247 | [9] -0.045 | [12] -0.023 | [15] 0.014 | [20] 0.07 | [17] -0.048 | [19] 0.012

NR3C1 isoform 3 (UniProt P04150)
inactive: [1] 0.061 | [2] -0.019 | [3] -0.058 | [4] -0.075 | [5] 0.09 | [6] 0.044 | [8] 0.047 | [9] -0.064 | [10] -0.059 | [11] -0.168 | [12] -0.019 | [13] -0.076 | [14] 0.04 | [15] 0.008 | [20] -0.031 | [16] 0.104 | [17] 0.024 | [18] -0.033 | [19] 0.055
